# Data published in PubChem BioAssay AID1671190 (National Center for Advancing Translational Sciences (NCATS), 2021).
# Sequences of proteins named here, by UniProt entry; tags and fusion partners are left off. A change or cut given only in a name is not applied to a line headed by its entry.
# UniProt P18054: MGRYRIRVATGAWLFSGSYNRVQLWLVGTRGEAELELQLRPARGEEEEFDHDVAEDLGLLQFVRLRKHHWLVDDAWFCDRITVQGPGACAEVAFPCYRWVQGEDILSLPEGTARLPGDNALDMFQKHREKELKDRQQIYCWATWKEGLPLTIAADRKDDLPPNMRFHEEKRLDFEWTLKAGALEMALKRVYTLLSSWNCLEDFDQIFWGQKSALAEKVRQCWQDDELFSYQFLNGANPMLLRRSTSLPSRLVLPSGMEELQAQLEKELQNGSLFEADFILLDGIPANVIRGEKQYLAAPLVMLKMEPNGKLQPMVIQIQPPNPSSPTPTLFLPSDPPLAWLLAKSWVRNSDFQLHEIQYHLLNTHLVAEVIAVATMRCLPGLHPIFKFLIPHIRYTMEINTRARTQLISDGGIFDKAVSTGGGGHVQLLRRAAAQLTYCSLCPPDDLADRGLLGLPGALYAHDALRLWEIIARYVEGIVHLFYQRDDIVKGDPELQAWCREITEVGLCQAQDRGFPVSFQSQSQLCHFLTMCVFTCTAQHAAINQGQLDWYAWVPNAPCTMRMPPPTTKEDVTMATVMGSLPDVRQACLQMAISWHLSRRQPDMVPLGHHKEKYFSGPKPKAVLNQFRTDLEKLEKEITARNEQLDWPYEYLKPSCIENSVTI
# The campaign covered roughly 580,000 compounds. About 6,100 (1.1%) were called active. Inconclusive results, whose numbers are uncertain, are shown with a selection of clear calls. The call rests on the fitted dose curve; in most records, active means well fitted inhibition curve with a large enough effect; inconclusive means small, poorly fitted or top-dose-only effect, or another doubt; inactive means no such curve, though single readings can be large or run the other way. Where the call is inconclusive, the potency comes from a doubtful curve fit.
# Molecular target: Polyunsaturated fatty acid lipoxygenase ALOX12 (Homo sapiens) (UniProt P18054)
# Test: Primary qHTS assay for inhibitors of human arachidonate 12S-lipoxygenase (ALOX12): Round 2
# Conditions: purified 12hLO, xylenol orange hydroperoxide absorbance; activity change, negative = inhibition: at 108 µM (top of the series) unless noted
# Outline: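 Purified human 12hLO (150 nM final) in 25 mM Hepes, 0.01% Triton X-100, pH 7.0 was preincubated 15 min at room temperature with compound. Then 40 uM arachidonic acid was added, 30 min. Hydroperoxide was read by Fe-XO absorbance ratio 573/405 nm.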
# On the % scale 0 is the no-effect control and ±100 the full control effect; potency means the concentration at half of the fitted maximal effect.
SMILES,Potency,"activity change, negative = inhibition"
CC(C)NC(=S)NN=C1CCCCC1,"inconclusive: 44.7 µM [inhibitor, partial curve, poor fit]",–
COc1ccc(C(CCNCc2ccc(OC(C)C)cc2)c2ccccc2OC)cc1 (centres undefined),"inconclusive: 89.1 µM [inhibitor, partial curve, poor fit]",–
CC(NC(=O)C1CCN(CCOc2ccc(Cl)cc2)CC1)c1cccc2ccccc12 (centres undefined),active: 22.4 µM,–
ClC(Cl)(Cl)C1c2ccccc2Nc2ccccc21,"inconclusive: 63.1 µM [inhibitor, partial curve, poor fit]",–
COc1ccccc1CNc1ncncc1-c1ccc(C(=O)N(C)C)cc1,"inconclusive: 50.1 µM [inhibitor, partial curve, poor fit]",–
CCn1c(SCC(=O)Nc2cccc(NC(C)=O)c2)nnc1-c1ccco1,–,inactive: -10.7%
Cc1ccc(C)c(S(=O)(=O)Nc2ccc3[nH]c(=O)[nH]c3c2)c1,–,inactive: -16%
COc1cccc(-c2nc(S(=O)(=O)c3ccccc3)c(N3CCOCC3)o2)c1,"inconclusive: 44.7 µM [inhibitor, partial curve, poor fit]",–
Cc1nc(SCC(O)CO)c([N+](=O)[O-])[nH]1 (centres undefined),"inconclusive: 44.7 µM [inhibitor, partial curve]",–
Oc1c(CN2CCCCC2)ccc2cccnc12,"inconclusive: 28.2 µM [inhibitor, partial curve, poor fit]",–
CCn1nnnc1SCC(=O)Nc1cc(OC)cc(OC)c1,–,inactive: -1.34%
COc1ccc(/C=C/C(=O)NCCc2ccc(OC)c(OC)c2)cc1,–,inactive: 4.67%
O=C(COc1ccc(/C=N/NC(=O)c2cc3ccccc3o2)cc1Br)Nc1ccccc1,"inconclusive: 56.2 µM [inhibitor, partial curve, poor fit]",–
NS(=O)(=O)c1ccc(N2N=C(c3ccccc3)CC2c2cccc(Br)c2)cc1 (centres undefined),"inconclusive: 44.7 µM [inhibitor, partial curve]",–
COc1ccc(Cc2nn3c(-c4cc(OC)c(OC)c(OC)c4)nnc3s2)cc1,–,inactive: 0%
O=C(CSc1nc2ccccc2c(=O)n1-c1ccccc1)N1CCCCC1,–,inactive: -37.7%
CN1CC(=O)N(C2CCNCC2)Cc2c1ncnc2N1CCC(O)CC1,"inconclusive: 4.47 µM [inhibitor, full curve, poor fit]",–
COc1ccc(C(CC(=O)NCc2ccc(Cl)cc2)N2Cc3ccccc3C2=O)cc1OC (centres undefined),"inconclusive: 100 µM [inhibitor, partial curve, poor fit]",–
O=c1oc2ccccc2c(NC2CCCCC2)c1NS(=O)(=O)c1ccc(Cl)cc1,"inconclusive: 44.7 µM [inhibitor, partial curve, poor fit]",–

# Quoted from the entries so far, 2 compounds:
SMILES,Potency,"activity change, negative = inhibition"
Cc1nc(SCC(O)CO)c([N+](=O)[O-])[nH]1 (centres undefined),"inconclusive: 44.7 µM [inhibitor, partial curve]",–
Oc1c(CN2CCCCC2)ccc2cccnc12,"inconclusive: 28.2 µM [inhibitor, partial curve, poor fit]",–
